Literature values, collected in patent US6451784B1 (priority 1996, dated 2002).

Tested on: patients
Conditions: cited from earlier work

Compound: CC[C@]1(O)C[C@@H]2CN(CCc3c([nH]c4ccccc34)[C@@](C(=O)OC)(c3cc4c(cc3OC)N(C)[C@H]3[C@@](O)(C(=O)OC)[C@H](OC(C)=O)[C@]5(CC)C=CCN6CC[C@]43[C@@H]65)C2)C1 [Vinblastine]
- Pulmonary toxicity of the IV administered drug: no pulmonary toxicity noted
